From patent US20060217305A1, “Induction of tumor cell senescence by retinoid receptor agonists and antagonists” (Ordway Research Institute, Inc., priority 2005, published 2006)
This continues a long series; more values of the same kind are listed elsewhere.

Test system: MCF-7 cells, human transcripts
Assay: Affymetrix U133 2.0 Plus microarray analysis of gene expression
Format: cell-based
Details: LGD1550 100 nM, 24, 48 or 72 hrs
Protocol: FIG. 4 depicts microarray analysis of changes in gene expression in MCF-7 cells treated with RAR agonist LGD1550 or RAR antagonist LG100815, plotted using GeneSpring software. The X axis represents different time points of treatment with RAR ligands (0 point correspond to cells cultured for 3 days with DMSO carrier).
To determine the effects of the RAR agonist and antagonist on the expression of essentially all the human genes, MCF-7 cells were treated with 100 nM of RAR agonist LGD1550 or 10 μM of RAR antagonist LG100815, concentrations that provide maximal induction of gene expression according to Q-PCR assays (as discussed above). Cells were treated for 24, 48 or 72 hrs, and total RNA from the untreated or treated cells was isolated using Qiagen's RNeasy Total RNA Isolation Kit. For gene expression profiling, RNA samples were provided to the microarray service facility of the Wadsworth Center Genomics Institute, which carried out biotinylated target preparation and hybridization with Affymetrix U 133 2.0 Plus oligonucleotide microarrays containing 56,000 probe sets representing 48,500 human transcripts. The hybridization signals were normalized using GCRMA procedure and analyzed using GeneSpring software (Silicone Genetics). […] The effects of the agonist and the antagonist also agreed with the results of the earlier analysis of the effects of RA on MCF-7 cells, with all 13 genes previously shown by RT-PCR to be induced in that system (Dokmanovic et al., 2002) also showing induction in the present microarray analysis (FIG. 4b).
RNA or protein products of genes that are induced to a similar level by both the RAR agonist and the RAR antagonist can be used as reporters in screening for compounds with properties similar to LG0100815. RNA or protein products of genes from this group (or promoter constructs for such genes) can be used as reporters in screening for compounds that mimic the effect of retinoids. Table 3, as shown below, lists a set of 508 genes chosen as preferred reporters. These genes were selected by being strongly (at least 2-fold) induced by both the agonist and the antagonist relative to untreated cells and showing no more than two-fold difference between their induction by the agonist and the antagonist. 62 genes listed at the top of Table 3 are particularly preferred reporters, as they are most strongly (at least 4-fold) induced by both the agonist and the antagonist. Table 4, as shown below, lists a set of 53 genes that can be used as preferred markers to discriminate between RARE-dependent and RARE-independent induction of transcription. These genes were chosen by being induced at least 3-fold by the agonist relative to untreated cells and also showing at least 4 times stronger induction by the agonist than by the antagonist. FIG. 6 plots the maximal fold induction of gene expression produced by the agonist versus that produced by the antagonist for the genes listed in Table 3 (particularly preferred reporters only) and in Table 4, with the corresponding trend lines. The relative effects of a tested compound on the genes in Table 3 and Table 4 should indicate whether the compound behaves as a RAR agonist or RAR antagonist. For example, one can select matching pairs of genes from Table 3 and Table 4 that are induced by the agonist to approximately the same degree. A compound that mimics the effects of the agonist should induce such genes to a similar level, whereas a compound that behaves like an antagonist should induce the gene from Table 3 to a much greater degree than the gene from Table 4.

## CC(/C=C/C=C(\C)c1cc(C(C)(C)C)cc(C(C)(C)C)c1)=C\C(=O)O [LGD1550]
  AK024898 227306_at fold induction, maximal effect of agonist: 11.73 fold
  AW510657 228904_at fold induction, maximal effect of agonist: 10.13 fold
  BF221547 227088_at fold induction, maximal effect of agonist: 26.46 fold
  CEACAM1 209498_at fold induction, maximal effect of agonist: 39.62 fold
  CEACAM1 211883_x_at fold induction, maximal effect of agonist: 4.51 fold
  CP 204846_at fold induction, maximal effect of agonist: 67.09 fold
  CYP1A1 205749_at fold induction, maximal effect of agonist: 7.33 fold
  CYP26B1 219825_at fold induction, maximal effect of agonist: 179.84 fold
  ChGn 219049_at fold induction, maximal effect of agonist: 13.08 fold
  FLJ10901 219010_at fold induction, maximal effect of agonist: 4.05 fold
  FLJ11127 219694_at fold induction, maximal effect of agonist: 22.82 fold
  FLJ32115 227450_at fold induction, maximal effect of agonist: 173.10 fold
  GBP1 202269_x_at fold induction, maximal effect of agonist: 5.99 fold
  GPX2 202831_at fold induction, maximal effect of agonist: 38.21 fold
  HOXA13 231786_at fold induction, maximal effect of agonist: 4.87 fold
  IFI44L 204439_at fold induction, maximal effect of agonist: 7.95 fold
  IFIT4 229450_at fold induction, maximal effect of agonist: 16.59 fold
  KDR 203934_at fold induction, maximal effect of agonist: 8.75 fold
  KIAA1359 231941_s_at fold induction, maximal effect of agonist: 11.07 fold
  LOC121838 232318_s_at fold induction, maximal effect of agonist: 28.28 fold
  LOC129607 226702_at fold induction, maximal effect of agonist: 6.01 fold
  LOC134548 230238_at fold induction, maximal effect of agonist: 5.56 fold
  LOC145757 1558649_at fold induction, maximal effect of agonist: 4.71 fold
  OAS2 228607_at fold induction, maximal effect of agonist: 7.28 fold
  PCSK2 204870_s_at fold induction, maximal effect of agonist: 6.32 fold
  PDE5A 206757_at fold induction, maximal effect of agonist: 16.48 fold
  PDE5A 1553175_s_at fold induction, maximal effect of agonist: 7.55 fold
  PDK4 225207_at fold induction, maximal effect of agonist: 4.76 fold
  RSAD2 213797_at fold induction, maximal effect of agonist: 7.54 fold
  SELE 206211_at fold induction, maximal effect of agonist: 4.54 fold
  TGFBI 201506_at fold induction, maximal effect of agonist: 53.01 fold
  TRIM31 208170_s_at fold induction, maximal effect of agonist: 35.70 fold
  TRIM31 210159_s_at fold induction, maximal effect of agonist: 17.09 fold
Listed as agonist
  HOXA1 214639_s_at fold induction, maximal effect of agonist: 95.33 fold
